PubChem BioAssay AID1259424 | University of Nebraska Medical Center, 2018
Test: 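Seek colon cancer survival genes behaving like KSR1, using a six-gene signature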 (primary screen). Cell system: human HCT116 colon cancer cells. Reagents: siRNA pool against human genes, 50 nM. Detection: 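Log2 levels of six mRNAs (branched-DNA multiplex), adjusted by two reference genes and the non-targeting median, then scored against the average KSR1 knockdown pattern as Pearson r and euclidean distance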. Reading the numbers: mean correlation with KSR1 profile and KSR1 correlation: higher = expression change more like KSR1 knockdown; mean distance from KSR1 profile: higher = expression change less like KSR1 knockdown.
Shown is an unselected part of about 14,000 reagents. 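Higher correlation or smaller distance means closer resemblance to KSR1 loss; control wells, including KSR1 knockdowns, recur on many plates.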 A reagent listed more than once was tested more than once; the source does not tell the runs apart. Not stated in the record: the time to read-out.

gene | mean correlation with KSR1 profile | mean distance from KSR1 profile | KSR1 correlation, replicate 1 | KSR1 correlation, replicate 2 | KSR1 correlation, replicate 3
STUB1 (STIP1 homology and U-box containing protein 1) | 0.205 | 1.27 | 0.0168 | 0.274 | -0.00429
SORBS1 (sorbin and SH3 domain containing 1) | 0.408 | 1.58 | 0.295 | 0.422 | 0.187
SCARB2 (scavenger receptor class B member 2) | -0.023 | 4.52 | 0.0294 | -0.106 | 0.0441
ANKRD39 (ankyrin repeat domain 39) | -0.74 | 2.28 | -0.687 | -0.618 | -0.341
RPL35 (ribosomal protein L35) | -0.396 | 4.46 | -0.414 | -0.589 | -0.217
SMOC1 (SPARC related modular calcium binding 1) | -0.212 | 1.49 | 0.0405 | -0.329 | -0.194
ADH1A (alcohol dehydrogenase 1A (class I), alpha polypeptide) | 0.0787 | 1.64 | 0.18 | -0.00515 | -0.104
ARL2 (ARF like GTPase 2) | -0.482 | 4.84 | -0.355 | -0.322 | -0.616
MAEA (macrophage erythroblast attacher, E3 ubiquitin ligase) | -0.279 | 1.82 | -0.365 | -0.353 | 0.0705
CD300A (CD300a molecule) | -0.0133 | 1.98 | 0.107 | -0.184 | 0.0309
ABRAXAS2 (abraxas 2, BRISC complex subunit) | -0.0268 | 3.19 | -0.0119 | 0.0432 | -0.166
CD80 (CD80 molecule) | -0.062 | 4.12 | -0.0879 | 0.0857 | -0.252
PNPLA3 | 0.581 | 1.43 | 0.426 | 0.367 | 0.79
CCDC3 (coiled-coil domain containing 3) | 0.477 | 1.32 | 0.327 | 0.482 | 0.373
PSMG3 (proteasome assembly chaperone 3) | 0.306 | 1.45 | 0.125 | 0.297 | 0.34
PAFAH2 (platelet activating factor acetylhydrolase 2) | -0.394 | 2.17 | -0.549 | -0.333 | -0.382
BDKRB2 (bradykinin receptor B2) | 0.722 | 1.28 | 0.73 | 0.677 | 0.727
BDKRB2 (bradykinin receptor B2) | 0.48 | 1.46 | 0.573 | 0.517 | 0.134
TRPV1 | 0.52 | 1.19 | 0.566 | 0.371 | 0.587
PROCR (protein C receptor) | 0.312 | 1.25 | 0.3 | 0.273 | 0.367
SRD5A1 (steroid 5 alpha-reductase 1) | 0.38 | 2.34 | 0.361 | 0.47 | 0.374
SCN2B (sodium voltage-gated channel beta subunit 2) | -0.37 | 2.61 | -0.398 | -0.417 | -0.299
COA7 (cytochrome c oxidase assembly factor 7) | 0.568 | 0.932 | 0.397 | 0.501 | 0.655
MED31 (mediator complex subunit 31) | -0.625 | 1.55 | -0.554 | -0.532 | -0.402
UFM1 (ubiquitin fold modifier 1) | 0.248 | 1.82 | -0.222 | 0.532 | 0.51
PRKAR2A | 0.448 | 1.49 | 0.727 | 0.346 | 0.336
NCOA1 (nuclear receptor coactivator 1) | -0.136 | 2.24 | -0.0593 | -0.0635 | -0.38

Part of the list above in another layout:
| gene | mean correlation with KSR1 profile | mean distance from KSR1 profile | KSR1 correlation, replicate 1 | KSR1 correlation, replicate 2 | KSR1 correlation, replicate 3 |
| --- | --- | --- | --- | --- | --- |
| ANKRD39 (ankyrin repeat domain 39) | -0.74 | 2.28 | -0.687 | -0.618 | -0.341 |
| RPL35 (ribosomal protein L35) | -0.396 | 4.46 | -0.414 | -0.589 | -0.217 |
| SMOC1 (SPARC related modular calcium binding 1) | -0.212 | 1.49 | 0.0405 | -0.329 | -0.194 |
| ADH1A (alcohol dehydrogenase 1A (class I), alpha polypeptide) | 0.0787 | 1.64 | 0.18 | -0.00515 | -0.104 |
| ARL2 (ARF like GTPase 2) | -0.482 | 4.84 | -0.355 | -0.322 | -0.616 |
| MAEA (macrophage erythroblast attacher, E3 ubiquitin ligase) | -0.279 | 1.82 | -0.365 | -0.353 | 0.0705 |
| CD300A (CD300a molecule) | -0.0133 | 1.98 | 0.107 | -0.184 | 0.0309 |

The results go on.
gene | mean correlation with KSR1 profile | mean distance from KSR1 profile | KSR1 correlation, replicate 1 | KSR1 correlation, replicate 2 | KSR1 correlation, replicate 3
CCR8 (C-C motif chemokine receptor 8) | 0.744 | 1.18 | 0.578 | 0.846 | 0.706
QDPR (quinoid dihydropteridine reductase) | 0.74 | 3.2 | 0.791 | 0.717 | 0.742
MPRIP (myosin phosphatase Rho interacting protein) | -0.111 | 1.74 | -0.0166 | -0.0407 | -0.452
ATP5F1E (ATP synthase F1 subunit epsilon) | 0.575 | 0.997 | 0.749 | 0.421 | 0.394
AQP1 (aquaporin 1 (Colton blood group)) | 0.0826 | 1.85 | 0.0926 | 0.0675 | 0.107
SLCO3A1 | 0.448 | 1.24 | 0.541 | 0.155 | 0.0568
ENGASE (endo-beta-N-acetylglucosaminidase) | 0.0609 | 2.68 | -0.0565 | 0.103 | 0.231
FEZ2 (fasciculation and elongation protein zeta 2) | -0.219 | 1.25 | -0.229 | -0.0155 | -0.0454
TMEFF1 | -0.503 | 1.56 | -0.384 | -0.717 | -0.352
C10orf1 (retired record) | -0.389 | 2.17 | -0.0413 | -0.631 | -0.122
TRMT6 (tRNA methyltransferase 6 non-catalytic subunit) | -0.425 | 1.94 | -0.383 | -0.0338 | -0.398
CSNK2B (casein kinase 2 beta) | -0.199 | 1.67 | -0.177 | -0.686 | -0.241
VEGFB (vascular endothelial growth factor B) | 0.132 | 3.3 | 0.238 | 0.121 | -0.0121
CBX1 (chromobox 1) | -0.568 | 2.98 | -0.552 | -0.471 | -0.755
METTL8 (methyltransferase 8, tRNA N3-cytidine) | 0.638 | 1.88 | 0.703 | 0.714 | 0.59
VIPR2 (vasoactive intestinal peptide receptor 2) | 0.0649 | 3.09 | 0.122 | 0.32 | -0.0742
PLA2G4A (phospholipase A2 group IVA) | 0.563 | 0.706 | 0.532 | 0.349 | 0.652
C1orf35 (chromosome 1 open reading frame 35) | -0.18 | 1.73 | -0.07 | -0.609 | -0.342
TANK (TRAF family member associated NFKB activator) | 0.235 | 1.6 | 0.314 | 0.226 | 0.0697
SLC41A3 | -0.428 | 4.08 | -0.19 | -0.535 | -0.411
SAA4 (serum amyloid A4, constitutive) | -0.055 | 1.51 | -0.0197 | -0.174 | 0.174
NIPAL2 (NIPA like domain containing 2) | 0.26 | 2.32 | 0.241 | 0.461 | 0.155
GPN3 (GPN-loop GTPase 3) | -0.0942 | 2.28 | -0.0562 | -0.144 | -0.0909
